Data as given in PubChem BioAssay AID743454 (Peter MacCallum Cancer Centre, 2014)

Assay: 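Knock-downs lowering viability or raising caspase 3/7 activity in vorinostat-treated resistant cells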 (primary screen)
System: human HCT116-VR colon cancer cells, selected for vorinostat resistance
Reagents: siRNA pool against human genes, 40 nM siRNA pool
Duration: vorinostat for 24 h, read-out about 72 h after transfection
Treatment: vorinostat at 2.5 µM final
Read-out: 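Two measures, CellTiter-Fluor viability and luminescent caspase 3/7 activity, each as fold change against same-plate mock wells, mean of duplicates, then screen-wide robust z-score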
Scale: viability robust z-score: higher = more viable cells than screen typical; caspase robust z-score: higher = more caspase 3/7 activity than screen typical
Rule for the call: 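Hits are knock-downs in viability class RV1/RV2 or caspase class CA1/CA2, excluding ones that killed cells in the no-drug cell-count arm; hits then retested with single siRNAs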
The deposit covers about 18,000 reagents; this is a random part of them. Of all reagents, 450 (2.5%) are marked active. 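Single biological run; no consistent viability z cut-off exists, so the class columns, not z-scores, define the calls.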 A number with no mark means an inactive call.

With NAT14 (N-acetyltransferase 14 (putative)), what was measured?
viability hit class: no change; caspase hit class: no change; viability robust z-score: -1; caspase robust z-score: -0.74

For SLC17A7, what was measured?
viability hit class: no change; caspase hit class: no change; viability robust z-score: -0.24; caspase robust z-score: 1.08

Which result is listed for TMPPE (transmembrane protein with metallophosphoesterase domain)?
viability hit class: no change; caspase hit class: no change; viability robust z-score: 0.08; caspase robust z-score: 0.4

Which result is listed for MAN2A2 (mannosidase alpha class 2A member 2)?
viability hit class: no change; caspase hit class: no change; viability robust z-score: 0.49; caspase robust z-score: -0.56

What did the screen give for VLDLR (very low density lipoprotein receptor)?
viability hit class: no change; caspase hit class: no change; viability robust z-score: 1.25; caspase robust z-score: 0.17

With GBP1 (guanylate binding protein 1), how do the results read?
viability hit class: no change; caspase hit class: no change; viability robust z-score: 0.28; caspase robust z-score: 2.21

How did the screen score CHRDL2 (chordin like 2)?
viability hit class: no change; caspase hit class: no change; viability robust z-score: 0.38; caspase robust z-score: -0.97

With HFE (homeostatic iron regulator), what was measured?
viability hit class: no change; caspase hit class: no change; viability robust z-score: 0.6; caspase robust z-score: 1.8

What is on record for CDC37P1 (cell division cycle 37 pseudogene 1)?
viability hit class: no change; caspase hit class: no change; viability robust z-score: 0.76; caspase robust z-score: 0.32

With ST6GALNAC5 (ST6 N-acetylgalactosaminide alpha-2,6-sialyltransferase 5), what does the deposit list?
viability hit class: no change; caspase hit class: no change; viability robust z-score: 0.31; caspase robust z-score: 0.56

What is on record for STAM2 (signal transducing adaptor molecule 2)?
viability hit class: no change; caspase hit class: no change; viability robust z-score: 0.34; caspase robust z-score: -1.04

For TGM7 (transglutaminase 7), what does the deposit list?
viability hit class: no change; caspase hit class: no change; viability robust z-score: -0.84; caspase robust z-score: 3.34

For ANO3 (anoctamin 3), what does the deposit list?
viability hit class: no change; caspase hit class: no change; viability robust z-score: -1; caspase robust z-score: -1.34

How did the screen score ZMYM1 (zinc finger MYM-type containing 1)?
viability hit class: no change; caspase hit class: no change; viability robust z-score: -0.34; caspase robust z-score: 0.05

For DDAH2 (DDAH family member 2, ADMA-independent), what does the deposit list?
viability hit class: no change; caspase hit class: no change; viability robust z-score: -0.52; caspase robust z-score: 1.8

Which result is listed for ULBP1 (UL16 binding protein 1)?
viability hit class: no change; caspase hit class: no change; viability robust z-score: -1.19; caspase robust z-score: -0.72

For ARL14 (ARF like GTPase 14), what was measured?
viability hit class: RV2 (reduced viability) (active); caspase hit class: no change; viability robust z-score: -3.59; caspase robust z-score: -1.51

What is on record for ASAH2B (N-acylsphingosine amidohydrolase 2B)?
viability hit class: no change; caspase hit class: no change; viability robust z-score: -0.7; caspase robust z-score: 2.21

With ZCCHC17 (zinc finger CCHC-type containing 17), what does the deposit list?
viability hit class: no change; caspase hit class: no change; viability robust z-score: 0.86; caspase robust z-score: 0.3

What did the screen give for NFXL1 (nuclear transcription factor, X-box binding like 1)?
viability hit class: no change; caspase hit class: no change; viability robust z-score: -0.36; caspase robust z-score: 0.79

What did the screen give for SP110 (SP110 nuclear body protein)?
viability hit class: no change; caspase hit class: no change; viability robust z-score: -0.82; caspase robust z-score: -0.54

Active calls (from the list above):
ARL14 (ARF like GTPase 14) → viability hit class: RV2 (reduced viability) (active); caspase hit class: no change; viability robust z-score: -3.59; caspase robust z-score: -1.51
